# Screen size: about 220,000 compounds; about 770 (0.35%) were called active. The inconclusive results got no clear call from the source; some entries with a clear call stand among them for comparison. Cut-off read from the data, not from the text of the source: active = binding response below about 49% or above about 150%; inconclusive = no clear call, values can overlap the other calls; inactive = in between.
# By UniProt entry, the sequences of proteins in these tests, tags left out.
# UniProt P09471, whole entry, looked up: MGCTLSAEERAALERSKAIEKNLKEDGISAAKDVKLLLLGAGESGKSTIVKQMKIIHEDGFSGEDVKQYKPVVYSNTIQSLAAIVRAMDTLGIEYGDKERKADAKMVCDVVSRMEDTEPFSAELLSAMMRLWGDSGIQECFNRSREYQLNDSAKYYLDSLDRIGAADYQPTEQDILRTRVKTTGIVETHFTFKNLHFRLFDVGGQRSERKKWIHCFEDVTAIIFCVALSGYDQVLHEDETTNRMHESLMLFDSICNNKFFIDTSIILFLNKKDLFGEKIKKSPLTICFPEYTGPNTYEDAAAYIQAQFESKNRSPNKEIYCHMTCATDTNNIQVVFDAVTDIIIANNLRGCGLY
# Target: Guanine nucleotide-binding protein G(o) subunit alpha (Homo sapiens) (UniProt P09471)
# Assay: RGS7-Galphao binding modulators, primary screen, biochemical, multiplexed bead flow cytometry (AID 1439);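 note: fluorescent Galphao held in activated GDP-AlF4 state binding bead-coupled RGS7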
# Settings: at 10 µM, actives lie on both sides
row,SMILES,binding response (% of control)
1,Cc1ccc(Cl)cc1N(CC(=O)NC1CCCCC1)S(C)(=O)=O,active: 197% [activator]
2,CC1CCC2(CC1)NC(=O)N(CC(=O)N1CCN(S(=O)(=O)c3ccccc3)CC1)C2=O (centres undefined),inconclusive: 98.5%
3,CC(C)OCCCn1c(SCC(=O)N2CCc3ccccc32)nc2ccccc2c1=O,inactive: 99.3%
4,CCOC(=O)C(C)Oc1cccc2c(=O)n(CC(=O)NCc3ccccc3)ccc12 (centres undefined),inconclusive: 102%
5,CCOC(=O)C(=CNc1ccccc1N1CCOCC1)C(=O)OCC,inconclusive: 89.8%
6,O=C1COc2ccc(C(=O)COC(=O)CNC(=O)C3CCCCC3)cc2N1,active: 167% [activator]
7,CC1=Nc2cc(C(=O)NCC3CCCO3)ccc2Sc2ccc(Br)cc21 (centres undefined),inconclusive: 73.7%
8,CC(=O)N1CCN(c2ccnc3cc(Cl)ccc23)CC1,inconclusive: 38.3%
9,Cc1cc(C)cc(C(=O)OCC(=O)NCc2cccs2)c1,inactive: 107%
10,CC1(OC(=O)c2ccc(Cl)nc2)C(=O)C=C2C=C3CCCN3C=C2C1=O (centres undefined),inconclusive: 113%
11,CCC1(C)Cc2ccccc2-c2nc(NCCCO)n(C)c(=O)c21 (centres undefined),inconclusive: 144%
12,Cc1nc2cc(NC(=O)CCS(=O)(=O)c3ccccc3)ccc2s1,inactive: 103%
13,NS(=O)(=O)c1ccc(N/N=C/c2cn(-c3ccccc3)nc2-c2cccs2)c([N+](=O)[O-])c1,inconclusive: 99.3%
14,CCCCc1nnc2c(N(C)S(=O)(=O)c3ccccc3)nc3ccccc3n12,inconclusive: 111%
15,O=C(/C=C/c1ccccc1)NNc1ccc(Cl)cc1,inconclusive: 83.1%
16,COc1cc(Nc2ncnc(N)n2)cc(OC)c1,inconclusive: 76%
17,Cn1ccnc1Sc1ccc(C(N)=O)cc1[N+](=O)[O-],inconclusive: 104%
18,CCOC(=O)c1[nH]c(C)c(C(=O)OCC(=O)N2CC(=O)Nc3ccccc32)c1C,inactive: 101%
19,O=C1S/C(=C\c2ccc(N3CCOCC3)o2)C(=O)N1c1ccccc1,inactive: 104%
20,O=[N+]([O-])c1cc(CSC2=NCCN2)ccc1O,inconclusive: 98.3%
21,Cc1cc(C(=O)NCc2cc(F)cc3c2OCOC3)nn1C,inconclusive: 185%
22,Cc1nc(C)c(N)c(=O)[nH]1,inconclusive: 68.2%
23,O=C(O)c1ccc(C(=O)C(=O)c2ccccc2)cc1,inconclusive: 120%

row,SMILES,binding response (% of control)
1,COc1c2c(c(C)c3c1C(=O)OC3)O[C@@]1(C)CC[C@@]3(O)C(C)(C)OC(=O)CC[C@]3(C)[C@H]1C2,inconclusive: -4.61%
2,N#CC1=C(N)N(c2ccccc2)C2=C(C(=O)CCC2)C1c1ccsc1 (centres undefined),inactive: 94.8%
3,NC(=O)c1ccccc1NC(=O)Nc1cccc(Cl)c1Cl,inactive: 93%
4,CCOC(=O)N1CCN(C(=O)COc2ccc(Cl)cc2C)CC1,inactive: 102%
5,CC(=O)C(=Cc1ccc(O)cc1)C(C)=O,inconclusive: 105%
6,N#Cc1c(-c2ccccc2)c(-c2ccccc2)nn(CC(=O)NNC(=O)Nc2ccc(Cl)c(Cl)c2)c1=O,inactive: 94.2%
7,CC(=O)N1CCN(C(=S)NC(=O)c2c(-c3ccccc3Cl)noc2C)CC1,inconclusive: 80%
8,N#CC(=C=[N-])c1nc2ccccc2nc1-[n+]1ccccc1,inconclusive: 124%
9,O=C(Nc1cccc(S(=O)(=O)N2CCCC2)c1)c1ccc2ccccc2n1,inconclusive: 88.2%
10,C=CCn1c(NC(=O)c2ccc(C)cc2)c(C#N)sc1=N,inactive: 100%
11,O=C(Nc1ccc(-n2ccc(C(F)(F)F)n2)cc1)Nc1cccc(Cl)c1,inconclusive: -26.6%
12,O=C(O)CCCC(=O)Nc1cccc([N+](=O)[O-])c1,inconclusive: 109%
13,Cc1c(NC(=S)NC(=O)CCc2ccccc2)c(=O)n(-c2ccccc2)n1C,inactive: 103%
14,CC1CCc2sc(C(=O)Nc3ccc(C(N)=O)cc3)cc2C1 (centres undefined),inconclusive: 94.9%
15,N=C(N)c1ccccc1,inconclusive: 113%
16,O=C(NN1C(=O)C2CCCCC2C1=O)c1ccco1 (centres undefined),inconclusive: 101%
17,Cc1cccc(CSc2nnc([C@@H]3CCCN3C(=O)OC(C)(C)C)o2)c1,inconclusive: 102%
18,NC(=O)C1CCN(c2c([N+](=O)[O-])cc(C(F)(F)F)cc2[N+](=O)[O-])CC1,inconclusive: 106%
19,CCCc1cc(=O)n(-c2nc3ccccc3s2)[nH]1,inconclusive: -118%
20,CC1CCN(C(=O)Cn2ncc3c4ccccc4n(C)c3c2=O)CC1,inconclusive: 123%
21,O=C(O)/C=C/C(=O)N1CCN(c2cccc(Cl)c2)CC1,inactive: 102%
22,CCCCc1c(O)nc(SCC(=O)c2ccccc2)n(-c2ccccc2C)c1=O,inconclusive: 92%
23,CCOC(=O)c1ccc(NC(=S)N(CCN(C)C)Cc2cccs2)cc1,inconclusive: 114%

row,SMILES,binding response (% of control)
1,FC(F)(F)c1ccc(-c2csc(-c3ccno3)n2)cc1,inconclusive: 164%
2,CCCCC(=O)N1C/C=C\C(c2ccc(OC)cc2)N(Cc2ccc(F)cc2)C(=O)C1 (centres undefined),inconclusive: 106%
3,O=C(NCCc1ccccc1)C(=O)NCC1OCCN1S(=O)(=O)c1ccccc1 (centres undefined),inconclusive: 73.4%
4,Cc1cc(=O)[nH]c(NN)n1,inconclusive: 198%
5,Cc1ccc(S(=O)(=O)N(C)C)cc1NC(=O)COC(=O)c1n[nH]c(=O)c2ccccc12,inconclusive: 136%
6,CCOC(=O)N/N=C(\C)c1ccc(-n2cnnn2)cc1,inactive: 99.7%
7,Cc1cc(=O)c2cc(C(=O)c3ccccc3)ccc2[nH]1,inconclusive: 107%
8,COCCCNC(=O)CN(c1cc(Cl)ccc1OC)S(C)(=O)=O,inactive: 101%
9,CCCCCc1cc(=O)oc2c(C(CCN3CCCC(C)C3)c3ccc(OC)cc3)c(OC)cc(OC)c12 (centres undefined),inconclusive: 106%
10,CC(NS(=O)(=O)c1ccc(OCC(=O)Nc2cccc([N+](=O)[O-])c2)cc1)c1ccccc1 (centres undefined),inactive: 94.6%
11,CCCOc1ccc(C(=O)NC(=S)NNC(=O)c2c(-c3ccccc3)noc2C)cc1,inconclusive: 64.8%
12,COc1ccc(-c2csc(Nc3ccccc3)[n+]2CC(O)c2ccc([N+](=O)[O-])cc2)cc1 (centres undefined),inconclusive: 72.3%
13,CCC(=O)N1CCc2cc(Br)cc(S(=O)(=O)NCc3ccco3)c21,inactive: 98.1%
14,COc1cc(/C=C2\SC(=S)N(NS(=O)(=O)c3ccc(C)cc3)C2=O)cc(OC)c1OC,inconclusive: 124%
15,CC(=O)c1sc(C(C)(C)C)cc1NC(=O)c1ccccc1C(=O)O,inconclusive: 155%
16,CCN(CC)CCCN(C(=O)Cn1nnc(-c2ccc(OC)c(OC)c2)n1)C(C(=O)NC(C)(C)C)c1ccc(F)cc1 (centres undefined),inactive: 98.4%
17,CC(C)COc1ccc(/C(O)=C2/C(=O)C(=O)N(CCN(C)C)C2c2ccncc2)cc1 (centres undefined),inactive: 108%
18,CC(Oc1ccccc1)C(=O)NC1=NCCS1 (centres undefined),inactive: 94.7%
19,c1csc(-c2nnc(COc3ccc4c(c3)OCO4)o2)c1,inconclusive: 89.7%
20,O=C(Nc1ccc(Nc2ccncc2)cc1)c1ccc([N+](=O)[O-])cc1,inconclusive: -13.9%
21,O=C(COc1ccc(/C=N/NC(=O)c2cc3ccccc3o2)cc1Cl)Nc1ccccc1,active: 218% [activator]
22,Cc1ccc(NC(=O)CN2C(=O)S/C(=C\c3cc(C)n(-c4ccc(C(=O)O)cc4)c3C)C2=O)cc1,inconclusive: 124%
23,Cc1cc(C)n(-c2ccc(C(=O)Nc3cccc(S(=O)(=O)N4CCCC4)c3)cc2)n1,inconclusive: 106%

row,SMILES,binding response (% of control)
1,Cc1ccc(CC(=O)NCCC(=O)O)cc1,inconclusive: 78.5%
2,CCOc1ncccc1C(=O)N1CCN(S(=O)(=O)c2ccc(Br)cc2Cl)CC1,inconclusive: 96%
3,CC(=O)c1cc(CN2CCN(CCC(C)C)C(CCO)C2)cs1 (centres undefined),inconclusive: 97.6%
4,COCCNc1nc(C)cc(-c2cc(C(=O)NCc3ccccc3)on2)n1,inconclusive: 90.7%
5,C/C(=N/NC(=O)c1cc(-c2ccc(Br)s2)[nH]n1)c1ccco1,inactive: 104%
6,Cn1nc(C(=O)N2CCN(C(c3ccccc3)c3ccccc3)CC2)c2ccccc2c1=O,inconclusive: -1.58%
7,O=C(CN1CCN(c2ccc(O)cc2)CC1)Nc1cc(S(=O)(=O)N2CCCCC2)ccc1Cl,inconclusive: 102%
8,CCOC(=O)c1ccc(N2C(=O)CC(C)(CC)CC2=O)cc1,inconclusive: 104%
9,O=C(O)c1ccc(COc2ccc3ccccc3c2)o1,inconclusive: 110%
10,COc1cc2c(cc1OC)C(C(=O)NCc1cccnc1)C(c1cccnc1)N(C)C2=O (centres undefined),active: 170% [activator]
11,COc1cc(/C=N/Nc2ccccn2)ccc1O,inconclusive: 249%
12,CC1CN(Cc2ccccc2)c2ccccc2NC1=S (centres undefined),inactive: 98.9%
13,CC(C)(C)c1ccc(C(=O)NNC(=O)c2cccc(-n3cnnn3)c2)cc1,inconclusive: 95.7%
14,CCSC1=N/C(=C\c2ccc3c(c2)OCO3)C(=O)S1,inactive: 93%
15,Nc1nonc1-n1nnc(C(=O)N/N=C/c2ccccc2)c1CSc1ccccc1,inconclusive: 91.1%
16,COc1cc(C=C2C(=O)c3ccccc3C2=O)ccc1O,inconclusive: 65.8%
17,COc1ccc(NC2=CC(=S)NC(C)(C)C2)cc1,inconclusive: 41.4%
18,N/C(=N\OC(=O)C(c1ccccc1)c1ccccc1)c1ccncc1,inconclusive: 138%
19,CCOc1ccc(/C=C2\SC(=S)N(C)C2=O)cc1OC,inconclusive: 78.6%
20,CNC(=O)CSc1nnc(-c2ccccn2)n1Cc1ccco1,inconclusive: 96%

# Individual results from above:
# Value for CC1(OC(=O)c2ccc(Cl)nc2)C(=O)C=C2C=C3CCCN3C=C2C1=O (centres undefined) under binding response (% of control): inconclusive: 113%
# Value for CCCCc1nnc2c(N(C)S(=O)(=O)c3ccccc3)nc3ccccc3n12 under binding response (% of control): inconclusive: 111%
# Value for COc1cc(/C=C2\SC(=S)N(NS(=O)(=O)c3ccc(C)cc3)C2=O)cc(OC)c1OC under binding response (% of control): inconclusive: 124%
# Value for CC(=O)N1CCN(C(=S)NC(=O)c2c(-c3ccccc3Cl)noc2C)CC1 under binding response (% of control): inconclusive: 80%
